## Screening data, single-dose tests

Measurements from “University of Dundee, Small-Polar-MMV Screening Library” (2021), ChEMBL document CHEMBL3988442.

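Assay of Toxoplasma gondii numbers, read through their beta-galactosidase reporter with a colour substrate. Tested at 50 µM. The record gives no direction; the compounds picked for IC50 retests had high values, so higher reads as fewer parasites. Size under these conditions: about 18,000 compounds, about 170 of them at 50% or above in at least one test.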

Values are the deposited “Percent Effect”, in %. The record does not define 0% and 100%; most values in the screen are far below 50% and negative numbers occur (in some assays of this library far below -100). Compounds were drawn at random from those tested, without regard to their results.

CC[C@H](N)C(=O)N1CC(Oc2c(C)cccc2C)C1 gave 24.72%.
CCOc1ccc(NC(=O)CNC)cc1OCC gave 0.2844%.
CCCn1c(C)nnc1CSc1ncnn1C gave -4.079%.
COCCN(C)CCNC(=O)c1ccc(Cl)cc1 gave -0.05626%.
CN(CC(=O)NC(C)(C)C)C(=O)c1sccc1Cl gave 13.98%.
Cc1ccc2c(n1)OCCN2C(=O)c1cnn(C)c1C gave -9.31%.
O=c1ccc(-c2csc(S(=O)(=O)N3CCCC3)c2)n[nH]1 gave -4.71%.
CN(CCNC1CCSC1)S(C)(=O)=O (configuration not stated) gave -1.111%.
CCS(=O)(=O)NC1CCCNC1 (configuration not stated) gave -26.07%.
NC(=O)C1CCN(CCOc2ccc(F)cc2)CC1 gave -22.1%.
NCCc1ncc(F)cc1F gave -17.72%.
CCCOC(C)C(=O)NCCc1noc(CO)n1 (configuration not stated) gave -15.52%.
FC(F)(F)c1ccc(OC2CCNCC2)nc1 gave -7.745%.
COC(=O)c1cc(CN2CCCSCC2)oc1C gave -4.16%.
CC(C)c1ncc(C(=O)NCCN(C)S(C)(=O)=O)cn1 gave 0.337%.
CC(O)(CN)C1CCCC1 (configuration not stated) gave -6.741%.
Cc1csc(CCNC(=O)C2CCCO2)n1 (configuration not stated) gave 21.5%.
CCN(CC)C(=O)CN1CCCC(c2nccn2C)C1 (configuration not stated) gave -13.41%.
Cc1cc(C)n(CC(C)NC(=O)c2ccc(N)nc2)n1 (configuration not stated) gave -15.1%.
N[C@H]1CN(C(=O)Cn2cccn2)C[C@@H]1C1CC1 gave -6.341%.
Cc1cc(C)c(C)c(OCC(=O)N2CCN(C)CC2)c1 gave 22.26%.
CCN(CC)C(=O)CSc1nc2c(cc1C#N)CCC2 gave 2.38%.
CC(=O)C1CCCN(C)C1 (configuration not stated) gave -2.768%.
COC1(CN)CCOC1 (configuration not stated) gave -1.299%.
CC(NC(=O)Nc1ccccn1)C1CCN(C)CC1 (configuration not stated) gave 8.819%.
CS(=O)(=O)c1ccccc1N1CCCC1 gave -2.695%.
COCCN(C)CCNC(=O)c1cccc(I)c1 gave 3.007%.
CC(C)c1nsc(NC2CCC(=O)N(C)C2)n1 (configuration not stated) gave 0.5503%.

Once more, the final 2:

- COCCN(C)CCNC(=O)c1cccc(I)c1 : 3.007%
- CC(C)c1nsc(NC2CCC(=O)N(C)C2)n1 (configuration not stated) : 0.5503%